Laboratory results reported in patent US5998374A, “Clavaspirins” (The Regents of University of California, priority 1997, dated 1999).
Not every detail of the peptide structures is certain; ends, links or a residue may be inferred. No end group written: not given here.

Tests used:
Format in all cases: cell-based
Listeria monocytogenes = assay: radial diffusion assay, antimicrobial activity against Listeria monocytogenes; conditions: pH7.4, pH6.5 and pH5.5; FIG. 4
Escherichia coli ML-35p = assay: radial diffusion assay, antimicrobial activity against E. coli ML-35p; conditions: pH7.4, pH6.5 and pH5.5; FIG. 5
Candida albicans = assay: radial diffusion assay, antimicrobial activity against Candida albicans; conditions: FIG. 9
Staphylococcus aureus = assay: radial diffusion assay, antimicrobial activity against Staphylococcus aureus; conditions: pH5.5; FIG. 10

Substance: VFQFLGKIIHHVGNFVHGFSHVF-NH2 [clavanin A, VFQFLGKIIHHVGNFVHGFSHVF*, reference compound]
- antimicrobial activity against L. monocytogenes at various pHs (Listeria monocytogenes): lost some activity at high concentrations
- antimicrobial activity against E. coli ML-35p at various pHs (Escherichia coli ML-35p): A similar effect is seen
- antimicrobial activity against C. albicans at 50 mM sodium chloride (Candida albicans): retain most activity
- antimicrobial activity against S. aureus (Staphylococcus aureus): demonstrably better than that of magainin 1 or cecropin P1
